In patent US12514906B2, “Use of C-type natriuretic peptide variants to treat skeletal dysplasia” (BIOMARIN PHARMACEUTICAL INC., priority 2015, dated 2026):
Part of at least one peptide drawing is inferred or uncertain, most often the ends.

Assays:
[1] = tested on: achondroplasia patients; test: Six month human clinical trial: standing height growth velocity; assay type: in vivo; settings: for Annualized growth velocity, Percent increase from Baseline Based on means / Standing height growth velocity, Change from Baseline Mean: 6 months
[2] = tested on: achondroplasia patients; test: Twelve month human clinical trial (cohort 3): standing height growth velocity; assay type: in vivo; settings: cohort 3, 15 μg/kg/day sc, 12 months

SMILES: CC[C@H](C)[C@@H]1NC(=O)[C@H](CCCNC(=N)N)NC(=O)[C@H](CC(=O)O)NC(=O)[C@H](CC(C)C)NC(=O)[C@H](CCCCN)NC(=O)[C@H](CC(C)C)NC(=O)CNC(=O)[C@H](Cc2ccccc2)NC(=O)[C@@H](NC(=O)CNC(=O)[C@H](CCCCN)NC(=O)[C@H](CO)NC(=O)[C@H](CC(C)C)NC(=O)CNC(=O)[C@H](CCCCN)NC(=O)[C@H](CCCCN)NC(=O)[C@H](CC(N)=O)NC(=O)[C@H](C)NC(=O)CNC(=O)[C@H](CCCCN)NC(=O)[C@H](Cc2ccc(O)cc2)NC(=O)[C@H](CCCCN)NC(=O)[C@H](CCCNC(=N)N)NC(=O)[C@H](C)NC(=O)[C@H](CC(N)=O)NC(=O)[C@@H]2CCCN2C(=O)[C@H](Cc2c[nH]cn2)NC(=O)[C@H](CCC(=O)O)NC(=O)[C@H](CCC(N)=O)NC(=O)CNC(=O)[C@@H]2CCCN2)CSSC[C@@H](C(=O)O)NC(=O)CNC(=O)[C@H](CC(C)C)NC(=O)CNC(=O)[C@H](CO)NC(=O)[C@H](CCSC)NC(=O)[C@H](CO)NC(=O)CNC1=O [Pro-Gly-CNP-37]
- Annualized 6-months growth velocity, Post-Treatment Mean ([1]; Cohort 1, 2.5 μg/kg/daily sc, n=8, baseline mean 3.8 cm/Year): 3.4 cm/year
- Annualized growth velocity, Percent increase from Baseline Based on means ([1]; Cohort 2, 7.5 μg/kg/daily sc): 45%
- Standing height growth velocity, Change from Baseline Mean ([1]; Cohort 2, 7.5 μg/kg/daily sc, 95% CI 0.1, 2.5, p 0.04): 1.3 cm/year
- Annualized 6-months growth velocity, Post-Treatment Mean ([1]; Cohort 2, 7.5 μg/kg/daily sc, n=8, baseline mean 2.9 cm/Year): 4.2 cm/year
- Annualized growth velocity, Percent increase from Baseline Based on means ([1]; Cohort 3, 15 μg/kg/daily sc): 50%
- Standing height growth velocity, Change from Baseline Mean ([1]; Cohort 3, 15 μg/kg/daily sc, 95% CI 0.6, 3.4, p 0.01): 2.0 cm/year
- Annualized 6-months growth velocity, Post-Treatment Mean ([1]; Cohort 3, 15 μg/kg/daily sc, n=10, baseline mean 4.0 cm/Year): 6.1 cm/year
- increase in annualized growth velocity above baseline ([2]; n=10): more than 47%
- mean increase in standing height growth velocity ([2]; n=10, vs baseline, p 0.017): 1.9 cm/year
